Assay results: patent US11608313B2, “Adamantylmethylamine derivative and use thereof as pharmaceutical” (TOHOKU UNIVERSITY, priority 2017, dated 2023)
For at least one compound, name, drawing or mass did not settle the structure.

Tested on: OBX mice
Experiment: Tail-suspension test and forced swim test in OBX mice (depression model)
Format: in vivo
Details: single oral dose 1 mg/kg, analyzed after 1 hour
Procedure: OBX mice were used as a depression model to determine the effect of TP-014 (chronic oral treatment for 2 weeks (1 mg/kg)) to ameliorate a depression-like symptom. OBX mice are reported to show a decline in cognitive function, but have originally been established as a depression model. Depression analysis was done by tail-suspension test and forced swim test. In the tail-suspension test, mice are hung upside-down by their tail. If the hung mice are affected by depression, they show a longer immobility time. The immobility time of normal mice is shorter since they move actively when hung. In the forced swim test, mice are forced to swim in a beaker filled with water. Depression mice neither swim nor move (just float). The time (immobility time(s)) for which mice stay still in such a way is measured.
The same model mice were orally treated with a single dose of each of the test compounds (1 mg/kg), and analyzed after 1 hour by tail-suspension test and forced swim test. The results are shown in FIGS. 22-1 (tail-suspension test) and 22-2 (forced swim test).

CCCC(=O)N[C@@H](c1ccccc1)[C@H]1C2C[C@H]3C[C@](Cl)(C2)C[C@@]1(O)C3 [TP-079, N—((R)-((1S,2R,3S,5S,7S)-5-chloro-1-hydroxyadamantan-2-yl)(phenyl)methyl)butylamide]
ameliorating effect on a depression-like symptom (tail-suspension test and forced swim test) compared with TP-014: higher ameliorating effect on a depression-like symptom than TP-014
